Source: PubChem BioAssay AID504834 (National Center for Advancing Translational Sciences (NCATS), 2011)
Several values for one entry are separate records, joined by “and”; a condition that tells them apart may be missing. Equal entries are not always repeated. Screen size: about 320,000 compounds; about 22,000 (6.9%) were called active. The shares of active, inactive and inconclusive entries below differ from those in the screen. Calls come from the whole dose curve; as a rule, active = well fitted inhibition curve with a large enough effect; inconclusive = small, poorly fitted or top-dose-only effect, or another doubt; inactive = no such curve, though single readings can be large or run the other way. Potencies beside an inconclusive call are fits to weak or partial responses and may not hold up.
% is set by controls: 0 for no effect and ±100 for the full control effect; potency is the fitted concentration of half-maximal effect.

Assay: Primary qHTS for delayed death inhibitors of the malarial parasite plastid, 96 hour incubation
Conditions: P. falciparum luciferase reporter growth; series mostly up to 28.7 µM; activity change, negative = inhibition: at the top concentration
In short: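 Luminescence readout: decreased luciferase signal marks inhibited growth of reporter-expressing P. falciparum in infected red cells (2% hematocrit, 0.05% parasitemia final), exposed to compound two generations (96 h, 37 C, 5% CO2).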
For `O=C(CN1C(=O)COc2ccccc21)NCCN1CCc2ccccc2C1`, the “activity change, negative = inhibition” value was inactive: 9.16%.
In the case of `COc1ccc(CC(O)COS(N)(=O)=O)cc1` (configuration not stated), the Potency is reported as inconclusive: 18.5 µM [inhibitor, single point].
With `Cc1cc(OCC(=O)Nc2ccc(S(=O)(=O)N3CCN(C)CC3)cc2)ccc1Br` the Potency was active: 6.57 µM.
For `Cc1cc2nccc(-c3ccccn3)n2n1`, the “activity change, negative = inhibition” value was inactive: 31.4%.
With `N#Cc1cccc(NC(=O)COC(=O)CCc2ccc(S(=O)(=O)N3CCOCC3)cc2)c1` the Potency was inconclusive: 10.4 µM [inhibitor, single point].
With `CCc1noc(C)c1C(=O)Nc1nnc(CC(C)C)s1` the “activity change, negative = inhibition” value was inactive: 2.96%.
With `COc1ccc(N(CC(=O)N2CCCCCC2)S(C)(=O)=O)cc1Cl` the “activity change, negative = inhibition” value was inactive: -29%.
In the case of `O=C(N/N=C\c1cc2c(cc1Cl)OCO2)c1ccc(Br)s1`, the “activity change, negative = inhibition” value is reported as inactive: 19%.
With `CCCN1CCN(CCCNC(=O)CN2C(=O)c3cccnc3Oc3ccc(C)cc32)CC1` the “activity change, negative = inhibition” value was inactive: 3.1%.
For `COc1ccc(CCNC(=O)CN2CCC(n3nnc4cc(F)ccc43)CC2)cc1OC`, the Potency was inconclusive: 18.5 µM [inhibitor, single point].
For `COCc1cc(C)nc(SCc2ccc([N+](=O)[O-])cc2)c1C#N`, the “activity change, negative = inhibition” value was inactive: 75%.
With `COc1ccc(CNC(=O)CCSCc2cccc(Cl)c2)c(OC)c1` the Potency was inconclusive: 13.1 µM [inhibitor, partial curve].
In the case of `Cc1c(CC(=O)O)c(=O)oc2c(C)c(OCc3ccccc3Br)ccc12`, the “activity change, negative = inhibition” value is reported as inactive: 17.5%.
With `CC1(C)CC(CCC(=O)Nc2ccc(S(N)(=O)=O)cc2)C(=O)O1` (configuration not stated) the “activity change, negative = inhibition” value was inactive: 15.1%.
In the case of `O=C(CSc1nnc(CNC(=O)c2cccs2)o1)NCCc1ccccc1`, the “activity change, negative = inhibition” value is reported as inactive: 54.8%.
For `COCCN1C(=O)C(CC(=O)Nc2ccccc2)SC1=Nc1ccc(OC)cc1` (configuration not stated), the Potency was inconclusive: 18.5 µM [inhibitor, single point].
For `CCOc1ccc2nc(SCC(=O)N3c4ccccc4Sc4ccccc43)c(C#N)cc2c1`, the Potency was inconclusive: 0.131 µM [inhibitor, full curve, poor fit].
For `O=C(NC1CCCCC1)c1ccc(COCC(F)(F)F)o1`, the “activity change, negative = inhibition” value was inactive: 0.393%.
For `COCCCn1c(C2CCCCC2)nc2oc3cc(OC)ccc3c(=O)c2c1=O`, the Potency was active: 0.928 µM.
In the case of `O=C(c1nc2ccccn2c1CNCCCn1cccn1)N1CCCC1`, the Potency is reported as active: 13.1 µM.
With `CCn1cc(C(=O)O)c(=O)c2cc(F)c(N3CCN(C(=S)NC(=O)c4ccccc4Cl)CC3)cc21` the Potency was inconclusive: 4.15 µM [inhibitor, partial curve].
In the case of `CCCCNS(=O)(=O)c1cc(-c2nn(C)c(=O)c3ccccc23)ccc1C`, the “activity change, negative = inhibition” value is reported as inactive: 14.3%.
With `CCc1ccc(-c2cc(C)no2)cc1S(=O)(=O)Nc1ccc(C)cn1` the Potency was active: 13.1 µM.
With `CC(=O)Nc1cccn(Cc2c(Cl)cccc2Cl)c1=O` the Potency was inconclusive: 10.4 µM [inhibitor, single point].
In the case of `CCc1cc2ccccc2nc1SCC(=O)NC1CCCC1`, the Potency is reported as inconclusive: 9.28 µM [inhibitor, partial curve].
With `Cc1cc(C)c(C(=O)NC2CCCc3c2cnn3-c2cccc(C)c2C)o1` (configuration not stated) the “activity change, negative = inhibition” value was inactive: 0.987%.
With `CCc1nnc(NC(=O)c2ccc(S(=O)(=O)N3CCOCC3)cc2)s1` the Potency was inconclusive: 13.1 µM [inhibitor, single point].
For `C/C(CCc1ccco1)=N\NC(=O)CNc1cccc2ccccc12`, the Potency was inconclusive: 0.738 µM [inhibitor, full curve, poor fit].
In the case of `Cc1cc2c(cc(C(=O)OCC(=O)NCc3cccs3)n2C(C)C)o1`, the “activity change, negative = inhibition” value is reported as inactive: 0%.
For `Cc1ccc(C)n1-c1cccc(C(=O)Nc2ccccc2)c1`, the Potency was inconclusive: 10.4 µM [inhibitor, single point].
For `CCn1c(SCC(=O)NC2CCCCC2)nnc1-c1ccco1`, the “activity change, negative = inhibition” value was inactive: 32.1%.
For `c1ccc(-c2[nH]c(-c3ccccc3)[n+](CC3CO3)c2-c2ccccc2)cc1` (configuration not stated), the Potency was active: 10.4 µM.
In the case of `CCCC(C(=O)NC1CCCC1)N(C(=O)c1snc(C(N)=O)c1N)c1ccc(OCC)cc1` (configuration not stated), the “activity change, negative = inhibition” value is reported as inactive: 7.99%.
With `COc1ccc(C2=[N+]([O-])C(C)(C)N(O)C2C)cc1` (configuration not stated) the Potency was inconclusive: 18.5 µM [inhibitor, single point].
With `C#CCOCCOCCOCCNc1nc(N2CCN(C(=O)CCCCCCCCCCNC(=O)Cn3cc(CCCCCN)nn3)CC2)nc(N2CCN(C(=O)CCCCCCCCCCNC(=O)[C@H](CO)n3cc(CCCCCN)nn3)CC2)n1` the Potency was active: 2.94 µM.
With `COc1ccc(OC)c(NC(=O)c2ccc(-c3cccs3)cc2)c1` the “activity change, negative = inhibition” value was inactive: 12%.
With `COc1cc(S(=O)(=O)N2CCOCC2)cc(C(=O)OCC(=O)NCc2ccco2)c1OC` the Potency was inconclusive: 18.5 µM [inhibitor, single point].
With `CCC(C)NC(=O)N1c2ccccc2Sc2ccccc21` (configuration not stated) the Potency was inconclusive: 10.4 µM [inhibitor, single point].
In the case of `COc1cc(C(=O)NNC(=O)COc2ccc(Cl)cc2)ccc1OCC(=O)N1CCOCC1`, the Potency is reported as inconclusive: 7.38 µM [inhibitor, partial curve, poor fit].
For `CC(=O)c1ccc(S(=O)(=O)Nc2ccc(C(=O)N(C)CC(=O)Nc3cccc(C)c3C)cc2)cc1`, the Potency was inconclusive: 18.5 µM [inhibitor, partial curve, poor fit].
For `CCCCN(CC)CCNC(=O)CCNC(=O)Cn1ccc2ccccc2c1=O`, the “activity change, negative = inhibition” value was inactive: 3.37%.
With `CCOc1ccc(Oc2ccccc2NC(=O)CN2C(=O)NC3(CCCC3)C2=O)cc1` the “activity change, negative = inhibition” value was inactive: 4.47%.
For `CSc1sc(-c2ccnc(SCCS(C)(=O)=O)n2)c(-c2ccccc2)c1C#N`, the Potency was inconclusive: 1.65 µM [inhibitor, full curve, poor fit].
With `O=C(CCl)Nc1nccs1` the Potency was inconclusive: 3.29 µM [inhibitor, single point].
For `COC(=O)C1=C(C)N(Cc2ccccc2)C(=O)N[C@H]1c1ccc(Br)cc1`, the Potency was inconclusive: 18.5 µM [inhibitor, single point].
For `Cc1ccc(NC(=O)CN(C)CC(=O)Nc2ccccc2C(=O)Nc2ccccc2)cc1`, the Potency was inconclusive: 11.7 µM [inhibitor, partial curve].
For `COc1cc(-c2nnc(CSc3nnc(Nc4ccc(Oc5ccccc5)cc4)s3)o2)cc(OC)c1OC`, the Potency was inconclusive: 7.38 µM [inhibitor, single point].
With `Cc1cccc(C(=O)OCC(=O)NCC2COc3ccccc3O2)c1` (configuration not stated) the “activity change, negative = inhibition” value was inactive: 19%.
With `CCCCC1C(=O)N(c2ccccc2)N(c2ccccc2)C1=O` the Potency was active: 13.5 µM and active: 3.29 µM.
For `O=C(NCC1CCCCC1)c1cccc(S(=O)(=O)N2CCCC2)c1`, the Potency was inconclusive: 10.4 µM [inhibitor, partial curve, poor fit].
With `CN1C(=O)/C(=C/c2ccc(-c3ccccc3[N+](=O)[O-])o2)SC1=Nc1ccc(Cl)c(C(=O)O)c1` the Potency was inconclusive: 18.5 µM [inhibitor, single point].
In the case of `CCCCn1c(-c2ccc([N+](=O)[O-])cc2)n[nH]c1=S`, the Potency is reported as inconclusive: 0.104 µM [inhibitor, full curve, poor fit].
For `Cc1ccc(NC(=O)C(c2ccccc2)N2CCN(C(=O)c3ccco3)CC2)cc1` (configuration not stated), the Potency was inconclusive: 20.8 µM [inhibitor, partial curve, poor fit].
For `CC(=C\C(=O)O)/C(=C/c1ccc(C)o1)C(=O)O`, the Potency was inconclusive: 14.7 µM [inhibitor, single point].
In the case of `COCCNC(=O)CSCc1c(F)cccc1Cl`, the Potency is reported as inconclusive: 13.1 µM [inhibitor, single point].
With `O=C(Nc1ccccc1C(=O)Nc1nnc(C(F)(F)F)s1)c1ccccc1Cl` the Potency was active: 4.65 µM.
In the case of `COc1cc(/C=C/C(=O)N2CCN(CC(O)COc3ccccc3)CC2)cc(OC)c1OC` (configuration not stated), the Potency is reported as active: 4.15 µM.
With `O=C(NCC(c1ccco1)N1CCCCC1)c1cccc(S(=O)(=O)Nc2ccc(F)cc2)c1` (configuration not stated) the Potency was inconclusive: 9.28 µM [inhibitor, partial curve, poor fit].
In the case of `CCOc1cccc(/C=N/NC(=O)c2cc(C3CC3)[nH]n2)c1O`, the Potency is reported as inconclusive: 13.1 µM [inhibitor, single point].
With `Cc1cc(CN(C)C(=O)CC2C(=O)NCCN2Cc2c(F)cccc2Cl)n[nH]1` (configuration not stated) the Potency was inconclusive: 11.7 µM [inhibitor, partial curve, poor fit].
In the case of `Cc1cc(=O)[nH]c(SCc2cccc3ccccc23)n1`, the Potency is reported as active: 3.7 µM.
For `CC(NS(=O)(=O)c1ccc(CCC(=O)NCC2CCCO2)cc1)c1ccccc1` (configuration not stated), the Potency was inconclusive: 10.4 µM [inhibitor, single point].
For `CC(C)OC(=O)CSc1nc(N)c(C#N)c(-c2ccco2)c1C#N`, the Potency was inconclusive: 5.22 µM [inhibitor, partial curve].
For `COc1ccc(OCc2cc(C(=O)NCCN3CCCC(O)C3)no2)c(Cl)c1` (configuration not stated), the Potency was inconclusive: 9.28 µM [inhibitor, partial curve].
In the case of `O=C(Nc1cccc(S(=O)(=O)N2CCCCCC2)c1)C1=COCCO1`, the “activity change, negative = inhibition” value is reported as inactive: 13.1%.
With `O=C(CSc1c(Cl)cccc1Cl)NC1CCCc2ccccc21` (configuration not stated) the Potency was inconclusive: 2.33 µM [inhibitor, single point].
In the case of `O=c1oc2ccccc2cc1-c1ccc(O)cc1`, the Potency is reported as inconclusive: 18.5 µM [inhibitor, single point].
In the case of `COc1ccc(N(CC(=O)N2CCN(Cc3ccccc3)CC2)S(C)(=O)=O)cc1OC`, the “activity change, negative = inhibition” value is reported as inactive: 18%.
In the case of `CCN(CC)c1ccc(/C=N/NC(=O)c2cnccn2)cc1`, the Potency is reported as inconclusive: 4.15 µM [inhibitor, single point].
With `COc1ccccc1-n1c(-c2cccnc2)n[nH]c1=S` the Potency was inconclusive: 18.5 µM [inhibitor, single point].
In the case of `Cc1nc2c(sc3nc(N4CCOCC4)c4c(c32)CC(C)(C)OC4)c(-c2ccc(Cl)cc2)c1C(=O)O`, the Potency is reported as active: 9.28 µM.
With `COc1ccc(C2(C(=O)Nc3ccc(C(=O)N4CCOCC4)cc3)CCOCC2)cc1` the Potency was inconclusive: 13.1 µM [inhibitor, single point].
